Measurements as given in PMC9076133.
No constants are given. Whether binding was seen depends on the method and setting. In cells and extracts the contact can be indirect. These calls come from enrichment with a bait or labelling near it, and not all partners need be listed.

Protein sequences, listed by entry. Tags and fused reporters are not part of them.
UniProt O00487: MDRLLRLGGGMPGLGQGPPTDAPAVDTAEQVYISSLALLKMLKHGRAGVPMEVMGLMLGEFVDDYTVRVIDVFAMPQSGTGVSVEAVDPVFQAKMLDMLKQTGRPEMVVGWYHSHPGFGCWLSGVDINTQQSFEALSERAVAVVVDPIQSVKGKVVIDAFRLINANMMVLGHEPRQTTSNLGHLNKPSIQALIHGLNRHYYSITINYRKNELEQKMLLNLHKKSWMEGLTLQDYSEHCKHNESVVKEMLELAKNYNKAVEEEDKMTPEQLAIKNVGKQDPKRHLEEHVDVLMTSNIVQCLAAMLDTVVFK
UniProt P46379: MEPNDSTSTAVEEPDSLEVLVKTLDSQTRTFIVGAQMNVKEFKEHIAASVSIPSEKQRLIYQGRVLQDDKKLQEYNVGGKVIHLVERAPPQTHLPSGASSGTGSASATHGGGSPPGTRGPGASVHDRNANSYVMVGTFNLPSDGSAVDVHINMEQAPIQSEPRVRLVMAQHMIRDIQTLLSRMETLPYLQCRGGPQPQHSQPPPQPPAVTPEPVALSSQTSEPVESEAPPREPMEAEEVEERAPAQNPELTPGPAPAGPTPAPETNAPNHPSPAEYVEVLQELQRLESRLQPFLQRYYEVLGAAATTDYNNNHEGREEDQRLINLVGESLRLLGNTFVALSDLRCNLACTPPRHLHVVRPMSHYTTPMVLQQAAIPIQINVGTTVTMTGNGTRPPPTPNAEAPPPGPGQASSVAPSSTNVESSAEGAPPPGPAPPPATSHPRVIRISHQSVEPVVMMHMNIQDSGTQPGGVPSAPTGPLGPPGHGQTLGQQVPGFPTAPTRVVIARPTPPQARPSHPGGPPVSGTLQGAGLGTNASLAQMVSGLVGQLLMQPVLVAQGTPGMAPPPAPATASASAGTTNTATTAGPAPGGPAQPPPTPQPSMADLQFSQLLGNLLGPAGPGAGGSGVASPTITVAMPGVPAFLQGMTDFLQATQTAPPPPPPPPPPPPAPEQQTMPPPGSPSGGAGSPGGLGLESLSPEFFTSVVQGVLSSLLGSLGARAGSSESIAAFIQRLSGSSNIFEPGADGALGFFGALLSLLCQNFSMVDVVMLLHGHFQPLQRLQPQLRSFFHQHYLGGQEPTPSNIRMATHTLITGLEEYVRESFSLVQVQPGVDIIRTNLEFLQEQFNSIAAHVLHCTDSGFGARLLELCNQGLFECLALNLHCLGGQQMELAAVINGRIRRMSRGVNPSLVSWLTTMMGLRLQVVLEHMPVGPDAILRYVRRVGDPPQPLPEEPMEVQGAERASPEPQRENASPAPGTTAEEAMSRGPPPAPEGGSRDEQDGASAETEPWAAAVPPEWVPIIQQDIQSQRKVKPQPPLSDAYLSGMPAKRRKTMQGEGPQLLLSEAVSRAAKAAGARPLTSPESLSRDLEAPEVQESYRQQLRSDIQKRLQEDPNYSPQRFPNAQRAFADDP
UniProt Q14997: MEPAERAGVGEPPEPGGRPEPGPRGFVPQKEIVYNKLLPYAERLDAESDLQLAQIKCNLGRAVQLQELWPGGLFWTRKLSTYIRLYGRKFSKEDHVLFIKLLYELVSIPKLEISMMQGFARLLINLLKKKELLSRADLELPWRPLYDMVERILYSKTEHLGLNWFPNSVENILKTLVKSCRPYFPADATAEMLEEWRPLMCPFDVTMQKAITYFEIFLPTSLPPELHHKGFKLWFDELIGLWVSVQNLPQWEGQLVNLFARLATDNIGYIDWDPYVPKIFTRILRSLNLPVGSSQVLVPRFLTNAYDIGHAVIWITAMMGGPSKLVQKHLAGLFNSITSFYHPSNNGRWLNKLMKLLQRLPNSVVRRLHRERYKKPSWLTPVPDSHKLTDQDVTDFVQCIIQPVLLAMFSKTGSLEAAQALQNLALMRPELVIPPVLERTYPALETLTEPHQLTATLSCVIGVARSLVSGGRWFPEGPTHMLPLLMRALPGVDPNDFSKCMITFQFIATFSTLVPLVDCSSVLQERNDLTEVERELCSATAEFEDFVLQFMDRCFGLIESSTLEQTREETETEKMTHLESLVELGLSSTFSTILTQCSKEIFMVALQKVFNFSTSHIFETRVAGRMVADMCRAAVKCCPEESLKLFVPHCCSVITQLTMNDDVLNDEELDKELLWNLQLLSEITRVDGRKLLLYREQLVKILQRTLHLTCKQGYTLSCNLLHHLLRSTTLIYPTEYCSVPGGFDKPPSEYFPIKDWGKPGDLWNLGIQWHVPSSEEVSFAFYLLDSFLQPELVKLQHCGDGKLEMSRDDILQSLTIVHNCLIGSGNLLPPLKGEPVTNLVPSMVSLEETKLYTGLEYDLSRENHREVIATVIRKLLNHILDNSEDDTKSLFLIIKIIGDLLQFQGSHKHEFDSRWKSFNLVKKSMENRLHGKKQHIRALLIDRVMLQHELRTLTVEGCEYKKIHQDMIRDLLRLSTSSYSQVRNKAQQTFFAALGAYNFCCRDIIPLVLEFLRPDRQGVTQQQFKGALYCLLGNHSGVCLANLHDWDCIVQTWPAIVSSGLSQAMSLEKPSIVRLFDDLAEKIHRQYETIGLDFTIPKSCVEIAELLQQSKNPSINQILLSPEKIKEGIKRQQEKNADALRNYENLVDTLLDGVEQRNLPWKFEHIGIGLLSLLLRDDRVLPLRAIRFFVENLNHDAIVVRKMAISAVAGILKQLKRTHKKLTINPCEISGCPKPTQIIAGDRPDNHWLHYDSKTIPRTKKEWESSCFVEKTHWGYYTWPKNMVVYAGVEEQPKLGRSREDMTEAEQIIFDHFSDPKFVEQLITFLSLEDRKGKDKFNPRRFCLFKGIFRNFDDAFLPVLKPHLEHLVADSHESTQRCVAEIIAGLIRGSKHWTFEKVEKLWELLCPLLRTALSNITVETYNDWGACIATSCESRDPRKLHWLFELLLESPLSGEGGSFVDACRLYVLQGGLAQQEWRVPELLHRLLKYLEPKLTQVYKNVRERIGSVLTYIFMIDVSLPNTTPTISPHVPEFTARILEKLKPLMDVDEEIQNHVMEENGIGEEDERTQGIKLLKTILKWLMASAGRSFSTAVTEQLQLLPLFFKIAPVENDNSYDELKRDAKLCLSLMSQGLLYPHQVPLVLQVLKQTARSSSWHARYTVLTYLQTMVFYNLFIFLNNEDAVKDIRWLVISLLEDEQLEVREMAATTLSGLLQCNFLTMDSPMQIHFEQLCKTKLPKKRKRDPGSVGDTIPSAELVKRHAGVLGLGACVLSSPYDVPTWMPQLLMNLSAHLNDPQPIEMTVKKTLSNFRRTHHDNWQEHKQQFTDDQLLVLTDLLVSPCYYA
UniProt Q06323: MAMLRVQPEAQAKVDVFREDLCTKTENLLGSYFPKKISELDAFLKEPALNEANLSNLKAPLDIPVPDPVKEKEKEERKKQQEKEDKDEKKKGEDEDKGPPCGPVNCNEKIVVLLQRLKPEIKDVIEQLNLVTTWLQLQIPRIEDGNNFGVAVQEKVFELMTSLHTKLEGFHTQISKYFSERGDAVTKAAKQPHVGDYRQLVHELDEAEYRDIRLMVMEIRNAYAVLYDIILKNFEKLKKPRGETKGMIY
UniProt Q9UL46: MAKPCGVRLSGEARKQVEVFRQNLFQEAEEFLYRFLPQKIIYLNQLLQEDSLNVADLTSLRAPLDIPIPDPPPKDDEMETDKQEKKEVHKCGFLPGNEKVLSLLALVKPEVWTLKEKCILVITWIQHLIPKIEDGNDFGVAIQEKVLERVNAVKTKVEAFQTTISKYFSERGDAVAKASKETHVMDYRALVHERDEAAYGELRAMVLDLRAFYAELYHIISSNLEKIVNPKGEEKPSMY

The substances below were run against HBTH-tagged PSMD14 (Rpn11-HTBH) (UniProt O00487) (assay: affinity purification with mass spectrometry; proteasomes with HTBH-tagged Rpn11 captured from lysate of HEK293 Rpn11-HTBH cells (treated with 1 µM b-AP15 or 0.1% DMSO) on streptavidin magnetic beads overnight at 4°C in 50 mM HEPES, 5 mM MgCl2, 10% glycerol, 2 mM ATP, 50 mM NaCl; released with AcTEV protease; LC-MS/MS with label-free quantification).

binding, binds:
BAG6 (BCL2 Associated Athanogene 6) (from UniProt P46379 1-1132)
PA200 (from UniProt Q14997 1-1843)
PSME1 (from UniProt Q06323 1-249)
PSME2 (from UniProt Q9UL46 1-239)
